In paper PMC5833440:
Results are given in words; binding and its absence hold for the method and conditions named. Binding seen in cells or lysates may run through a third protein. Some binding calls cover weakened binding; strength is not graded here.

Amino acid sequences for entries named in this document (tags omitted).
UniProt O88498: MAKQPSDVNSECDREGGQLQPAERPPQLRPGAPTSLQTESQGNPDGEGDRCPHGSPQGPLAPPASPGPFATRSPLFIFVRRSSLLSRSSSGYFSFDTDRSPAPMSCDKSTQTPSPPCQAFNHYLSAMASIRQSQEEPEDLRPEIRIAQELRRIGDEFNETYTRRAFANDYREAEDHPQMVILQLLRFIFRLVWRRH

Tests used:
[1] = molecular target: Bim (rat (endogenous in primary ONH astrocytes)) (UniProt O88498); test: condition: only cells treated with forskolin (10 uM) plus H89 (10 uM) for 1 h; co-IP; as a1, but ONH astrocytes treated with forskolin (10 uM) plus the PKA inhibitor H89 (10 uM) for 1 h
[2] = molecular target: Bim (rat (endogenous in primary ONH astrocytes)) (UniProt O88498); test: co-IP; lysates of primary rat ONH astrocytes treated with forskolin (10 uM) for 1 h (untreated and H89 alone also in the panel); co-IP lysis buffer (20 mM Tris-Cl pH 7.4, 135 mM NaCl, 1.5 mM MgCl2, 1 mM EGTA, 10% glycerol, 1% Triton X-100); IP with rabbit polyclonal anti-Bim and Protein A/G PLUS-Agarose, blot for Bcl-xL

- binding [1]: no binding
- binding [2]: binds
Substance: Bcl-xL (from UniProt P53563-1 1-233)
